# Test results: US5445942A, “Amplification assay for hydrolase enzymes” (London Biotechnology Limited, priority 1988, dated 1995)
# At least one structure is not confirmed: it was looked up by name or label, or the drawing left a doubt.
# Test system: Lactate dehydrogenase and Lactate oxidase
# Assay: Pyruvate-L-lactate cycling system, absorbance at 520 nm
# Assay type: biochemical, Pediococcus sp.
# Details: for Net Rate: background subtracted
compound,measurement,setting,value
"CC(=O)C(=O)O [Pyruvate, pyruvate]",Rate after pyruvate addition,pyruvate 10 μm,0.0822 change in absorbance/min
same,Net Rate,pyruvate 10 μm,0.0704 change in absorbance/min
same,Rate after pyruvate addition,pyruvate 100 μm,0.564 change in absorbance/min
same,Net Rate,pyruvate 100 μm,0.552 change in absorbance/min
